Library screen at single concentrations

Amino acid sequences for entries named in this document (tags omitted).
UniProt P9WFT3, whole entry: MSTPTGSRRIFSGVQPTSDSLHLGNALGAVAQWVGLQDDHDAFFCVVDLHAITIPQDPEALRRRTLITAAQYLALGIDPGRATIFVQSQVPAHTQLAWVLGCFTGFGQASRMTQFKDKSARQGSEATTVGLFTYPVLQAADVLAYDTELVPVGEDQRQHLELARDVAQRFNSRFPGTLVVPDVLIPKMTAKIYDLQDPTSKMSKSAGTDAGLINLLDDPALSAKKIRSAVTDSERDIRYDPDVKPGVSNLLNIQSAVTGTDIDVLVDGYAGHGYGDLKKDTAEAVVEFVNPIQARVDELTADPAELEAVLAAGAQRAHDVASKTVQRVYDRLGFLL
UniProt I6X8D2, whole entry: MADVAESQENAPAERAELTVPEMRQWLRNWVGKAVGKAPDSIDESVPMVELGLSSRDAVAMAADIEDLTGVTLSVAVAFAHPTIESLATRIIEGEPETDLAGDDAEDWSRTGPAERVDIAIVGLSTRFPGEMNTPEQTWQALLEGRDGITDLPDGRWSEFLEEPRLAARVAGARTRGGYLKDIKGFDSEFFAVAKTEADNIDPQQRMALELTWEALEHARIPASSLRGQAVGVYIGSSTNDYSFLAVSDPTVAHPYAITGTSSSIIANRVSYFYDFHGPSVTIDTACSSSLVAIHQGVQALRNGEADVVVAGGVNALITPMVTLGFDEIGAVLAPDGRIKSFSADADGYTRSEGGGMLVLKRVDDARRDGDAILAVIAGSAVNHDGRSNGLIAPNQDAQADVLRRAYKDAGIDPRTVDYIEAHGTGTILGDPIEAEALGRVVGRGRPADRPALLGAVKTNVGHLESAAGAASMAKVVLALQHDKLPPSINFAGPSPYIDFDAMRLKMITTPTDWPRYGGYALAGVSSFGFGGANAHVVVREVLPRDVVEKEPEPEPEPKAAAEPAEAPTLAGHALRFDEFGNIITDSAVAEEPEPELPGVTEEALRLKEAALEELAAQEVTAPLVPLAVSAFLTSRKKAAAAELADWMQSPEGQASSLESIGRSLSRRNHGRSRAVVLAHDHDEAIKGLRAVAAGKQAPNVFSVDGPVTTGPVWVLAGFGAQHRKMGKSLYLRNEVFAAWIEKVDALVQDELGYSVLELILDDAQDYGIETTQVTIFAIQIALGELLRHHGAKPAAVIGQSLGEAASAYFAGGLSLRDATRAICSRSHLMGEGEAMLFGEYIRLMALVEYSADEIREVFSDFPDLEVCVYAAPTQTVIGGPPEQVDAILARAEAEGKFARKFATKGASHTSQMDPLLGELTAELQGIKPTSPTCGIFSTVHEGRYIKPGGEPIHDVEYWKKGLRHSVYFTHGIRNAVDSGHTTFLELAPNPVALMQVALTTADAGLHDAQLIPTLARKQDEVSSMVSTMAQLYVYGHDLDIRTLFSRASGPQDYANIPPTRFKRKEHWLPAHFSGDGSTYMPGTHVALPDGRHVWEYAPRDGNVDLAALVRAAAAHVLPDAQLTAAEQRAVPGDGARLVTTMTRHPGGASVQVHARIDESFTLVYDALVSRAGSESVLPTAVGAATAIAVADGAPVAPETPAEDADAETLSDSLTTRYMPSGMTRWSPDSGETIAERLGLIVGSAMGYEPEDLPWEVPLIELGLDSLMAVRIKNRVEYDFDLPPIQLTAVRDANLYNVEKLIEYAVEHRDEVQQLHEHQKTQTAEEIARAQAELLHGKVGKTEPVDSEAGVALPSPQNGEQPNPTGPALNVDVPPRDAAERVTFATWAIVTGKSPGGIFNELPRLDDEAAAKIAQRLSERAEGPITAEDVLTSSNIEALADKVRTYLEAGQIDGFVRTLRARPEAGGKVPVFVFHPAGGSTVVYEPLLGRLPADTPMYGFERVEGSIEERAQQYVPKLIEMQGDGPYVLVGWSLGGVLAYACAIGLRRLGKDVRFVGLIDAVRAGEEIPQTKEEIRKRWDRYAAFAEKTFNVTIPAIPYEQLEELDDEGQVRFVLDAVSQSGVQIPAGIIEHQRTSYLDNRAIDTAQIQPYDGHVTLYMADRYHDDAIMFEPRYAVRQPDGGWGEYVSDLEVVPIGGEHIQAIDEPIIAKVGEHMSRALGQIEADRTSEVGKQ
UniProt P9WNZ1, whole entry: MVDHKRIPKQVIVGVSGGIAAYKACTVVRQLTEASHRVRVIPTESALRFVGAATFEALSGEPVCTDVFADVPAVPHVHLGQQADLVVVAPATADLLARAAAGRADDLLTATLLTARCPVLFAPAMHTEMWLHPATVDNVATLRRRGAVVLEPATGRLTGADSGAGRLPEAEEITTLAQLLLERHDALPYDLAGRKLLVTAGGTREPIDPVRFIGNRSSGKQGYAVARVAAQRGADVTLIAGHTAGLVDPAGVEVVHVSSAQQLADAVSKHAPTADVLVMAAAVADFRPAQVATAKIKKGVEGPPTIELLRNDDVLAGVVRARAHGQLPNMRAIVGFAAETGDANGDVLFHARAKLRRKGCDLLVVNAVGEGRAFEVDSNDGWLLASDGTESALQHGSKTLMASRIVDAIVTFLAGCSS

The values are deposited in ChEMBL (CHEMBL3988442, “University of Dundee, Small-Polar-MMV Screening Library” (2021)).

A: 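Tryptophan-tRNA ligase, Mycobacterium tuberculosis (UniProt P9WFT3). Enzyme assay of tryptophanyl-tRNA synthetase; the read-out is not stated. Concentration: 10 µM. Higher most likely means stronger inhibition; the record gives no direction and few retests gave an IC50. About 65,000 compounds were tested under these conditions; 0.098% (about 64) showed 50% or more at least once.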
B: 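Enzyme assay of the thioesterase domain of polyketide synthase 13; the read-out is not stated. Target: Polyketide synthase Pks13, Mycobacterium tuberculosis (UniProt I6X8D2). Concentration: 30 µM. The record gives no direction; the compounds picked for IC50 retests had high values, so higher reads as stronger inhibition. Size under these conditions: about 67,000 compounds, about 300 of them at 50% or above in at least one test.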
C: 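Coenzyme A biosynthesis protein CoaBC, Mycobacterium tuberculosis (UniProt P9WNZ1). Enzyme assay of CoaBC with a phosphate dye (Biomol Green) read at 650 nm. Compounds at 30 µM. Higher reads as stronger inhibition, judged from the few compounds that gave an IC50. Most strong results did not repeat in a second test. Of about 67,000 compounds tested this way, about 40 (0.06%) reached 50% or more in at least one test.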

Results are given as percent effect. The controls that fix the scale are not given in the record; negative values are as filed. The compounds are a random part of those screened. A dash means the value is not listed here; it may have been measured.

compound,A,B,C
O=C(CCN1C(=O)CCC1=O)NCC1(c2c(F)cccc2F)CCCC1,-9.742,-5.655,-1.575
CC(C)c1nc(-c2ccnc(N3CCNCC3)n2)no1,1.144,-6.061,9.666
Cc1cnn(CC2CN(c3cnc4ccccc4n3)CCO2)c1 (stereo not given),-16.13,-6.857,6.684
CC(=O)N1CCC(n2ccc(-c3cnc(NCC(C)C)nc3)n2)CC1,-,23.73,1.566
O=c1c2cccc(F)c2ncn1CCN1CCNCC1,0.1638,-20.46,-38.9
CC(C)CN1CCCC1c1ccc(C(=O)Nc2cn(C)nn2)s1 (stereo not given),-3.448,-,-2.479
CCn1cnc(NC(=O)N2CCCC(c3ccccc3)CC2)n1 (stereo not given),-1.92,-33.65,3.871
CCOc1ccc(CN2CCc3nc4ccsc4c(=O)n3CC2)cc1,-,5.024,-1.115
CS(=O)(=O)Cc1cccc(CNS(=O)(=O)c2ccc(F)c(F)c2)c1,-1.718,2.699,0
c1ccc(-c2nc(CNC3CCc4ncnn4C3)cs2)cc1 (stereo not given),-6.818,-13,-0.5263
COCCC(=O)N1CCCC(CCC(=O)Nc2ccc(Cl)cc2)C1 (stereo not given),-2.313,-19.75,5.157
Cc1ccccc1-n1cnnc1SCC(=O)NCC1CCCO1 (stereo not given),-3.374,-24.53,-13.23
Cn1ccnc1SCCNC(=O)c1cc(S(N)(=O)=O)ccc1F,-2.987,-30.96,8.696
Cc1ccc(C(=O)N2CCC3(CCCCC3)C2)c(=O)[nH]1,1.285,5.306,1.921
O=C(CSc1nc2c(cnn2CCO)c(=O)[nH]1)NC1CCCCC1,-1.614,-20.6,-1.083
Cn1nc(C2CCCN(Cc3ccc(F)cc3)C2)c2nccnc21 (stereo not given),-,-2.166,4.902
O=c1c(NCCc2ccc(O)cc2)c(NCc2ccccn2)c1=O,-2.441,-4.43,-2.152
COCC1CN(Cc2sccc2C)Cc2nnn(CC3CC3)c21 (stereo not given),2.329,-37.54,3.1
Cc1cncc(C2CCN(Cc3cnc(C)nc3)CC2)n1,-3.46,-8.124,-9.201
Cc1cc(C(N)=O)ccc1NC(=O)c1nc(N2CCCC2)ncc1Cl,-1.313,-3.866,1.863
O=C1COC2(CCN(c3ncccn3)CC2)CN1c1ccsc1,-3.843,-10.79,2.254
CCN(CC)C(=O)[C@@H]1C[C@@H](n2cc(-c3ccccn3)nn2)CN1,-0.7276,13.14,8.065
Cc1cc(C(C)NC(=O)CCN2C(=O)c3ccccc3C2=O)c(C)o1 (stereo not given),2.564,-8.882,1.72
Cc1ncc(-c2ccnc(N3CCN(C)CC3)n2)c(-c2cccnc2)n1,-0.9291,1.224,3.781
Cc1cc(C2CCCN2C(=O)NCc2ccccn2)on1 (stereo not given),0.4968,-25.16,1.353
C[C@@H]1CN(Cc2ccco2)CCN1C(=O)Cc1ccccc1F,-2.083,-4.741,5.742
FC(F)(F)Cn1ccnc1CNCC1CCCN1c1cccnn1 (stereo not given),-3.894,-7.021,-3.182
CC(O)CN1CCN(C(=O)c2cnn(-c3ccc(Cl)cc3)c2)CC1 (stereo not given),-2.487,-8.636,12.95
CCOc1cc(NC(=O)N2CCC3(CCOCC3)C2)ccc1C,-2.761,-33.68,2.93
O=C1CO[C@@H]2CN(CC3CCOC3)C[C@H]2N1Cc1cccc(F)c1 (stereo not given in full),-5.185,-7.924,1.777
CC1CCc2nc(O)c(C(=O)NCc3cccc(F)c3)cc2C1 (stereo not given),-2.412,-350.9,2.557
O=S(=O)(Nc1ccc(N2CCOCC2)cn1)c1cccc(F)c1,0.8227,-11.15,-1.613
CCOCCNS(=O)(=O)c1cc(C)c2nc(O)cc(C)c2c1,-3.168,7.558,3.883
CCCc1nnc(N2CC[C@](C)(O)[C@H](C)C2)s1,-0.8653,-21.11,0
O=C(O)c1ccc(CNC(=O)C2CCN(Cc3ccco3)CC2)s1,-3.539,25.43,0.3589
Cc1cc(C)cc(CNc2ccc(C(=O)NC(C)CO)cc2)c1 (stereo not given),0.8961,-37.15,3.422
O=C(NC1CC1)N1CCn2c(Cn3cccn3)cnc2C1,-5.35,-18.6,6.345
O=C(CCCNc1ncccn1)N1CCCC(n2cncn2)C1 (stereo not given),-7.157,-4.439,0.1272
Cc1cc2nccc(C3CCN(C(=O)c4ccccc4F)CC3)n2n1,-2.75,5.213,9.202
O=C1CN(C(=O)C2CN(c3ccc(F)cc3)CCO2)CCN1 (stereo not given),-3.179,-1.182,2.891
COC[C@H]1CCCN1c1nccc(-c2cnn(-c3ccccc3C)c2)n1,-4.542,-4.35,3.21
Cn1ccnc1Sc1ccc(S(N)(=O)=O)cn1,3.997,5.496,16.55
NC(=O)N1CC[C@H]2CO[C@H](CNC(=O)c3ccnnc3)[C@H]2C1,-0.2116,-24.98,5.417
CO[C@@H]1CCN(C(=O)Cc2ccsc2)[C@H]1Cc1cccnc1,-,5.672,4.97
O=C(Cn1cc(C(=O)O)ccc1=O)Nc1cc(F)ccc1F,-1.443,-36.96,12.63
CC(C)CCN(C)C(=O)c1nc(S(C)(=O)=O)n2ccccc12,3.192,-15.69,3.109
CCNc1ncc2c(n1)CN(c1ccc(OC(F)(F)F)cc1)C2=O,2.202,-29.76,-6.467
COc1ccccc1OCCC(=O)N1CCCCC1c1nccs1 (stereo not given),-5.932,-6.952,-1.979
CCn1nc(C)c(CN(CCOC)C(=O)c2ccccc2N(C)C)c1C,-4.669,-17.88,1.499
Cc1cc(C)n(CC2CN(CC(=O)N3CCNC3=O)CCO2)n1 (stereo not given),-6.621,-11.37,-0.129
c1cc(-c2nc3c(c(NCCn4ccnn4)n2)CCNCC3)ccn1,-0.06345,-8.114,0.2481
CCN(CCn1cccn1)Cc1nc(-c2ccoc2)oc1C,6.741,-6.423,-0.1972
Cc1ccc2nnc(C(=O)NCCCn3cccn3)nc2c1,4.301,-4.873,5.626

6 of the entries, repeated:

compound	A	B	C
Cc1ccc2nnc(C(=O)NCCCn3cccn3)nc2c1	4.301	-4.873	5.626
O=S(=O)(Nc1ccc(N2CCOCC2)cn1)c1cccc(F)c1	0.8227	-11.15	-1.613
O=c1c(NCCc2ccc(O)cc2)c(NCc2ccccn2)c1=O	-2.441	-4.43	-2.152
Cn1ccnc1Sc1ccc(S(N)(=O)=O)cn1	3.997	5.496	16.55
O=C1COC2(CCN(c3ncccn3)CC2)CN1c1ccsc1	-3.843	-10.79	2.254
CC(C)CN1CCCC1c1ccc(C(=O)Nc2cn(C)nn2)s1 (stereo not given)	-3.448	-	-2.479